Measurements taken from patent publication US7569526B2, “Anti-oxidants in soluble oil base for metal working fluids” (Crompton Corporation, priority 2003, dated 2009).
Some compounds share one wording; it may come from a single statement.

Experiment: RBOT, standard ASTM D2272 (150 C.), bomb life
Assay type: physicochemical
Settings: antioxidant with Triadine 3; baseline 0.5% Triadine-3
Description: The antioxidants used in this study were received from internal and external commercial sources without alteration. The sample of butylated DPA was from a preparation of Naugalube 640 in which the sample was enriched in butylated DPA.
The ASTM D2272 method was run according to the standard procedure using a 10/90 (oil/water) emulsion as a test sample.

| Compound | synergy with biocide / benefit over baseline in ASTM D2272 testing |
| --- | --- |
| 3,5-di-t-butyl-4-hydroxy-hydrocinnamic acid C7-C9 branched alkyl ester [Naugalube 531] | no significant benefit over the baseline |
| CC(C)(C)c1cc(CCC(=O)OCCSCCOC(=O)CCc2cc(C(C)(C)C)c(O)c(C(C)(C)C)c2)cc(C(C)(C)C)c1O [AX 15, Thiodiethylene-bis(3,5-di-t-butyl-4-hydroxyhydrocinnamate)] | no significant benefit over the baseline |
| Cc1cc(C(C)(C)C)c(O)c(C(C)(C)C)c1 [BHT, 2,6-di-t-butyl hydroxytoluene] | no significant benefit over the baseline |
| butylated octylated diphenylamine [Naugalube 640] | large improvement in performance |
| butylated octylated diphenylamine [butylated DPA] | large synergy |
| mono-, di-, and tri-, nonylated diphenylamine [Naugalube 438L] | large improvement in performance |
| octylated phenyl-α-naphthylamine [Naugalube APAN] | no significant benefit over the baseline |
